The supplement of paper PMC3334620
Whole data set: some 33,000 sequences, median “E-score (-0.5 to 0.5)” near -0.0059, cut for the highest 2% near 0.26. The list shows a part of the results.

target: T1, Cin5 (UniProt P40917); test: PBM E-score (8-mer binding enrichment) (E-score (-0.5 to 0.5)); higher = stronger / more preferred TF binding; conditions: protein concentration: 100 nM; construct: GST-full length
T1 sequence: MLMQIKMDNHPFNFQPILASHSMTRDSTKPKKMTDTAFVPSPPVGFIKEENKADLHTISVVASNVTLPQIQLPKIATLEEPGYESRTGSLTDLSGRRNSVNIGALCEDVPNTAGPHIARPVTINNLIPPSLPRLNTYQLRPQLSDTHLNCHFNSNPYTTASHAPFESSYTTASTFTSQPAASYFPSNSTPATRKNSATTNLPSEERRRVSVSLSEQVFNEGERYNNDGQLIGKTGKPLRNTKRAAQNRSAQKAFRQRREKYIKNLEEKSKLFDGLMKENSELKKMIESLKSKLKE
Outline: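 Each ungapped eight-base word and its reverse complement, pooled, received an E-score from the Universal PBM Analysis Suite. Underlying scans, normalised with masliner, recorded fluorescent anti-GST bound to GST-tagged yeast transcription factors. These were applied at about 100-200 nM to universal all-10-mer Agilent arrays double-stranded by primer extension.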

| Sequence | PBM E-score |
| --- | --- |
| GAAGTCTA | -0.0123 |
| ACCAGGCG | -0.12 |
| AGGATAAT | 0.177 |
| GCAATGAC | -0.161 |
| CGGTAGTC | -0.127 |
| TCCCACAA | -0.0432 |
| CCATTAAG | -0.0114 |
| AAAACATT | 0.0962 |
| AGAAATAT | 0.189 |
| CGGAGTAA | 0.0682 |
| GACGTGGC | -0.186 |
| AATAACTA | 0.212 |
| CGTCGAGA | 0.049 |
| CTTATTCA | 0.142 |
| TAATAAGA | 0.105 |
| ATTAAAAT | 0.207 |
| ATCCCTGG | -0.207 |
| CGGGACTC | -0.13 |
| GCTTTGGA | 0.0963 |
| AACATCGC | 0.0345 |
| CAACTCCA | 0.0308 |
| AATTGGAT | 0.159 |
| AAACACGC | 0.0173 |
| GACCTCTA | -0.159 |
| CAAGTAGG | -0.143 |

A second format for part of the listing above:
Sequence,PBM E-score
CTTATTCA,0.142
TAATAAGA,0.105
ATTAAAAT,0.207
ATCCCTGG,-0.207
CGGGACTC,-0.13

(cont.)

| Sequence | PBM E-score |
| --- | --- |
| GACGATCA | -0.141 |
| GTCATAAA | 0.0135 |
| ACGTCGCG | -0.0544 |
| CTGACTCA | 0.108 |
| CAGTACGC | -0.00348 |
| CAATGTGG | 0.0271 |
| ACTAGATA | 0.147 |
| ATAGTTTC | 0.133 |
| ATAAAGTG | 0.149 |
| CCTAGGAA | -0.0125 |
| GATGTCTA | -0.0949 |
| AATGGAAT | 0.254 |
| CCTTTACG | 0.171 |
| CTGAAGCC | -0.138 |
| AAGTTATT | 0.178 |
| CAGTCGAA | -0.0494 |
| GATCTGAA | -0.153 |
| ACGCTAAA | -0.0625 |
| GGCCATCA | 0.086 |
| ACCTTCAT | 0.0567 |
| GGCGAGAC | -0.122 |
| ATTTTGTC | -0.00928 |
| CCTTTCCA | -0.0665 |
| CGATAACC | 0.0481 |
| GCCTCTAA | -0.124 |

| Sequence | PBM E-score |
| --- | --- |
| GGTCAGAC | -0.264 |
| ATCCATCA | 0.172 |
| CAGTGCCC | -0.192 |
| AATACTCC | -0.00991 |
| GAACTAAC | -0.0148 |
| CGTCGGGC | -0.366 |
| CTTATCCC | -0.0209 |
| ACTGAGGC | -0.0128 |
| AATCTATC | 0.118 |
| AACTGGAT | 0.126 |
| GACCTTTA | 0.00652 |
| GCACGGGA | -0.0662 |
| CTGCCCGC | 0.038 |
| CGGTTATA | 0.0931 |
| GAAGCGTA | 0.121 |
| ATTTAAGC | 0.25 |
| CGAATCCA | -0.00541 |
| TGTATACA | 0.217 |
| GCAGCCTA | -0.254 |
| GTGCATTA | 0.0714 |
| CACATCGG | -0.121 |
| AGCATCTA | 0.00891 |
| GGCACCTA | -0.0967 |
| AGAGAATA | 0.222 |
| AGTAATTC | 0.194 |

| Sequence | PBM E-score |
| --- | --- |
| AGTCGAGC | -0.165 |
| AAACATTG | -0.0181 |
| TCCCTTCA | -0.11 |
| ACACCCAG | -0.131 |
| CTATCCAA | -0.105 |
| AATAAGGG | 0.0887 |
| AACATCGG | -0.084 |
| ACGCTACG | -0.109 |
| GACGTAGC | -0.282 |
| CTGTCCTC | -0.142 |
| CGTAAACA | 0.146 |
| GTATGTGA | 0.0438 |
| GTCAGGTA | -0.0517 |
| ATAGAGCA | 0.113 |
| CATATGTA | 0.172 |
| AGCTGACG | 0.158 |
| CGACATGA | -0.0587 |
| TAGCTTCA | -0.00071 |
| GGACCAAC | -0.134 |
| CGAGGTAC | -0.153 |
| AAATGGGC | -0.0629 |
| CTACTTCC | 0.0929 |
| TAGTGATA | -0.0113 |
| ATATTCTA | 0.201 |
| CTTCATTA | 0.215 |

Reprinted at random: 4 entries already listed

| Sequence | PBM E-score |
| --- | --- |
| AATCTATC | 0.118 |
| GACGTGGC | -0.186 |
| CTACTTCC | 0.0929 |
| GACGTAGC | -0.282 |

The results go on.

| Sequence | PBM E-score |
| --- | --- |
| CAACACCA | 0.112 |
| GGTGATGA | 0.181 |
| GGAGATGA | 0.0743 |
| AAACGAAC | 0.0876 |
| CGCTACCA | -0.143 |
| TACGAGCA | -0.0525 |
| CCTTTTCC | -0.0969 |
| GTTGCTGA | 0.12 |
| ACAAACAC | 0.156 |
| GGTCAACA | 0.0999 |
| CATTTTGC | 0.176 |
| CATCAACC | 0.106 |
| AACCAGCG | -0.0946 |
| AGGGATAC | -0.0905 |
| CTCAATAC | 0.162 |
| GTTCATGA | 0.143 |
| AGCGCATG | 0.029 |
| CATTAGCG | 0.02 |
| ATGCTCAG | 0.0984 |
| AGCAGAAA | 0.122 |
| AGAGATGA | 0.0149 |
| GATTCCTA | -0.0731 |
| AACCCAAC | 0.17 |
| ACTAGAAA | 0.00187 |
| TAGTCCCA | -0.0797 |

| Sequence | PBM E-score |
| --- | --- |
| ATGAAGCA | 0.0283 |
| ACTTTGAC | 0.0383 |
| ATTGCGTA | 0.287 |
| AAGTGGCC | -0.0504 |
| AAGTACTA | 0.201 |
| AATGACGT | 0.116 |
| ATAGCTAT | -0.0552 |
| CATCCGCG | 0.109 |
| TGATCCAA | 0.0932 |
| ACTATACA | 0.0855 |
| CGAGGGTA | -0.151 |
| TAATATGA | 0.262 |
| CGTAATGA | 0.222 |
| ATAAGGAT | 0.223 |
| ACAGCTTA | 0.195 |
| CTTGAAGA | -0.124 |
| GCTGGTAA | -0.08 |
| CGGCATCA | 0.00938 |
| CTCGAGAA | -0.0673 |
| GTAAAACA | 0.126 |
| AGTAGTTA | 0.14 |
| AGTCGGAT | 0.041 |
| CGCTATGA | 0.0716 |
| ATGCTAGG | -0.031 |
| CGGCGTCC | -0.0903 |

| Sequence | PBM E-score |
| --- | --- |
| AGTCGCCC | -0.172 |
| ACCGCTAC | -0.0553 |
| CGAGCCCA | -0.0279 |
| AAGTCATT | 0.0384 |
| CAATGAGC | -0.00644 |
| TATAAAAA | 0.176 |
| AGAGGTAG | -0.0342 |
| ATGCATGA | 0.202 |
| CTAGACTC | -0.256 |
| AAGCCTAA | -0.037 |
| ATACCGTC | 0.141 |
| CAATTGTG | 0.098 |
| AAGTCTCC | -0.161 |
| CATGAGCA | -0.079 |
| CGACTACG | -0.122 |
| CTGATACA | -0.0853 |
| CGCAGATC | -0.242 |
| AAACTCAT | 0.205 |
| AGCCACAC | 0.0698 |
| TAAACTCA | 0.18 |
| CGGCGCCG | 0.187 |
| CGAGTCAA | -0.0176 |
| AGACATGC | -0.279 |
| AACTCTCC | -0.107 |
| CGAAACAG | 0.0646 |

| Sequence | PBM E-score |
| --- | --- |
| TGCGTGAA | 0.00272 |
| GCTACCAC | -0.0775 |
| AGGTGCAT | -0.108 |
| CAGCTGTC | 0.0733 |
| AACACCGA | 0.0411 |
| AAGGGGTA | -0.169 |
| GCATCACA | -0.0285 |
| GTCTTGCA | -0.00202 |
| AGCTCGCC | 0.00272 |
| AATCTACT | 0.126 |
| GCATCGAA | -0.11 |
| CTGCGGGA | -0.235 |
| ATTCGTGG | 0.0484 |
| GCCTACAC | -0.137 |
| AGACCGTG | -0.179 |
| ACGTGAGC | 0.0359 |
| ACCCAGGG | -0.265 |
| TAACATCA | 0.124 |
| GAATCCGC | -0.105 |
| TAGGACGA | 0.0128 |
| CCGACCGC | -0.184 |
| GTCTGACA | 0.0182 |
| ACGCGTCA | -0.0129 |
| CAAACAAC | 0.195 |
| ATAAACCC | 0.138 |

| Sequence | PBM E-score |
| --- | --- |
| ACTTCTGA | 0.0835 |
| GTAAGCTA | 0.36 |
| ACTACCTC | -0.0509 |
| ACGACCTG | -0.194 |
| CCCACACA | -0.0121 |
| TAAGCCGA | 0.142 |
| AAGTGAGC | -0.0453 |
| GGGGATGA | 0.0252 |
| ACTTACCC | 0.0873 |
| AAGAATCG | 0.192 |
| GACAACGC | 0.0121 |
| CCTGATGA | 0.107 |
| ACTTCGTA | 0.0293 |
| AGCGTCAG | -0.124 |
| CTCTTTGA | -0.124 |
| ACCTCGCG | 0.0457 |
| ATCAATTG | 0.232 |
| GCCACCCA | -0.0925 |
| ATGAAGGA | 0.115 |
